Laboratory results from patent publication US5166066A (priority 1991, dated 1992).

Protein sequences, listed by entry. Tags and fused reporters are not part of them. Residues count along the entry.
UniProt P18508, 39-466: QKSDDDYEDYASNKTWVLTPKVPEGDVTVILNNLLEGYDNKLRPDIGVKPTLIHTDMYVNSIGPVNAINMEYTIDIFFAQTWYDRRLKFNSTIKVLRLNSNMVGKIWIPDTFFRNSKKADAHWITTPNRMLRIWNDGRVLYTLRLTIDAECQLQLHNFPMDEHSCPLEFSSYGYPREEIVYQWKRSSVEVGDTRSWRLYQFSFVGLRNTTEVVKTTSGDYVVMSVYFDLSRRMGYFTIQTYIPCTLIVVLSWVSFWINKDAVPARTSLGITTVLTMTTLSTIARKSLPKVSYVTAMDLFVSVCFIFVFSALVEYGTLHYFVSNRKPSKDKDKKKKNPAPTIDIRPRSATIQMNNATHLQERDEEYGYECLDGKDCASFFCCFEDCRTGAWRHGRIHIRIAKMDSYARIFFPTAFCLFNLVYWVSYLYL
UniProt P62813, 28-455: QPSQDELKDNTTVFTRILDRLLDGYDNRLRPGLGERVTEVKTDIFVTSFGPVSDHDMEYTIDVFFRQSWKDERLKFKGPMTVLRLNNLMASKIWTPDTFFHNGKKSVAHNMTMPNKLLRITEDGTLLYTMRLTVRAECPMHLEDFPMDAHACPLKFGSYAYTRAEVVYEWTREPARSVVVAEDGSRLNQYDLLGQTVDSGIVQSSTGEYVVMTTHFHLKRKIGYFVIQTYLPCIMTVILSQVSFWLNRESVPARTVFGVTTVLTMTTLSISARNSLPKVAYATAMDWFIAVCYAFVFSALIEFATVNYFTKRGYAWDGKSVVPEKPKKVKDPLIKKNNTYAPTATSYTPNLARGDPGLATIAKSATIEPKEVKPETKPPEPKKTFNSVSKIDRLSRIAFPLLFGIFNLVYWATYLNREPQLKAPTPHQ
UniProt P63138, 26-474: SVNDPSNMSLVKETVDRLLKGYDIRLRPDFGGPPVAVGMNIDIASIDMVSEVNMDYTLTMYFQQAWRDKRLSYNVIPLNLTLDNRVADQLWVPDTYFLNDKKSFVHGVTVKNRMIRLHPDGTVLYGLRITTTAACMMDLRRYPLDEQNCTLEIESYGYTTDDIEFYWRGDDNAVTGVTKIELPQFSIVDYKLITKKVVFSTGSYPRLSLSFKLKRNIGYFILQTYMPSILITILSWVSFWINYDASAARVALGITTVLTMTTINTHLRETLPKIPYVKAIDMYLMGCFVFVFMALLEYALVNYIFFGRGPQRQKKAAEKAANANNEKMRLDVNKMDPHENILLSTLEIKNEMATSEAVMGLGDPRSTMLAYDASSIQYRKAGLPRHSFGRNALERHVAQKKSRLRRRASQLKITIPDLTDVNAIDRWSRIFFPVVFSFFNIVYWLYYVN

Molecular target: T1, GABAA receptor-Cl- channel complex composed of rat α1, β2, γ2 subunits (Rattus norvegicus, UniProt P18508+P62813+P63138)
T1 construct: expressed in transfected cells
Test: whole-cell patch clamp of GABA-mediated Cl- currents in transfected HEK 293 cells
Format: cell-based
Settings: cell line 2C-1C, HEK 293, holding potential -60 mV

## CN1C(=O)CN=C(c2ccccc2)c2cc(Cl)ccc21 [Diazepam]
  response of cells to drug (Cl- current): responsive
